Results are given in words; binding and its absence hold for the method and conditions named. Tags and fused reporters may be left off the sequences shown.
T1: pre-mRNA-processing factor 39a (PRP39a), GAL4 DNA binding domain fusion (Arabidopsis thaliana) (UniProt Q93ZR3)
T1 sequence: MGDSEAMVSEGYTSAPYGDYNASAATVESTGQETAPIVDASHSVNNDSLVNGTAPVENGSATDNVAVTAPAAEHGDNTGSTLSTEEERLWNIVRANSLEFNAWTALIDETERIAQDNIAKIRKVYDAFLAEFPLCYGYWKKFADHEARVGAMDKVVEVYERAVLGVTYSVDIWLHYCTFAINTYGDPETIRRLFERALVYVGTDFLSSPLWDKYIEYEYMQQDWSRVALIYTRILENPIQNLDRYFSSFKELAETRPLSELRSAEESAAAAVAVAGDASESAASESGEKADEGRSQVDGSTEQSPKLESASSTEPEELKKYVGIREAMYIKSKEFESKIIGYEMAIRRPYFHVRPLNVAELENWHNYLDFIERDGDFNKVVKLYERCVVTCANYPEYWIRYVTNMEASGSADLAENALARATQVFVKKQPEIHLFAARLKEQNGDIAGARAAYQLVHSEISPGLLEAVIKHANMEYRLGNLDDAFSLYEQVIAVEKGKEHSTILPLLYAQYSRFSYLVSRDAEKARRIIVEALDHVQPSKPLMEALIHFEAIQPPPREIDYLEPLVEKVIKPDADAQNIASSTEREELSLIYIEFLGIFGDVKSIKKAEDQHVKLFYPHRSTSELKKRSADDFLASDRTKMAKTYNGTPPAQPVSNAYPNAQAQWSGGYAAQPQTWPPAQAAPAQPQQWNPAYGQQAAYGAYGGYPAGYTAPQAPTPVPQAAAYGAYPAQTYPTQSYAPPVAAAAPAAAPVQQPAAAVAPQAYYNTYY

B1: RBP45a, GAL4 activation domain fusion (protein, UniProt Q9FPJ8 1-387)
chain: MQQPPSNAAGAGQIPSGQQHLWMMMQQQQQQQQMQLSAAPLGQHQYGIGSQNPGSASDVKSLWIGDLQQWMDENYIMSVFAQSGEATSAKVIRNKLTGQSEGYGFIEFVSHSVAERVLQTYNGAPMPSTEQTFRLNWAQAGAGEKRFQTEGPDHTIFVGDLAPEVTDYMLSDTFKNVYGSVKGAKVVLDRTTGRSKGYGFVRFADENEQMRAMTEMNGQYCSTRPMRIGPAANKNALPMQPAMYQNTQGANAGDNDPNNTTIFVGGLDANVTDDELKSIFGQFGELLHVKIPPGKRCGFVQYANKASAEHALSVLNGTQLGGQSIRLSWGRSPNKQSDQAQWNGGGYYGYPPQPQGGYGYAAQPPTQDPNAYYGGYTGYGNYQQQRQ
B2: RBP45b, GAL4 activation domain fusion (protein, UniProt Q9SAB3 1-405)
chain: MMQQPPPGGILPHHAPPPSAQQQYGYQQPYGIAGAAPPPPQMWNPQAAAPPSVQPTTADEIRTLWIGDLQYWMDENFLYGCFAHTGEMVSAKVIRNKQTGQVEGYGFIEFASHAAAERVLQTFNNAPIPSFPDQLFRLNWASLSSGDKRDDSPDYTIFVGDLAADVTDYILLETFRASYPSVKGAKVVIDRVTGRTKGYGFVRFSDESEQIRAMTEMNGVPCSTRPMRIGPAASKKGVTGQRDSYQSSAAGVTTDNDPNNTTVFVGGLDASVTDDHLKNVFSQYGEIVHVKIPAGKRCGFVQFSEKSCAEEALRMLNGVQLGGTTVRLSWGRSPSNKQSGDPSQFYYGGYGQGQEQYGYTMPQDPNAYYGGYSGGGYSGGYQQTPQAGQQPPQQPPQQQQVGFSY
B3: RBP45c, GAL4 activation domain fusion (protein, UniProt Q93W34 1-415)
chain: MMQQPPPASNGAATGPGQIPSDQQAYLQQQQSWMMQHQQQQQGQPPAGWNQQSAPSSGQPQQQQYGGGGSQNPGSAGEIRSLWIGDLQPWMDENYLMNVFGLTGEATAAKVIRNKQNGYSEGYGFIEFVNHATAERNLQTYNGAPMPSSEQAFRLNWAQLGAGERRQAEGPEHTVFVGDLAPDVTDHMLTETFKAVYSSVKGAKVVNDRTTGRSKGYGFVRFADESEQIRAMTEMNGQYCSSRPMRTGPAANKKPLTMQPASYQNTQGNSGESDPTNTTIFVGAVDQSVTEDDLKSVFGQFGELVHVKIPAGKRCGFVQYANRACAEQALSVLNGTQLGGQSIRLSWGRSPSNKQTQPDQAQYGGGGGYYGYPPQGYEAYGYAPPPQDPNAYYGGYAGGGYGNYQQPGGYQQQQQ
B4: RBP47a, GAL4 activation domain fusion (protein, UniProt F4I3B3 1-445)
chain: MQTPNNNGSTDSVLPPTSAGTTPPPPLQQSTPPPQQQQQQQWQQQQQWMAAMQQYPAAAMAMMQQQQMMMYPHPQYAPYNQAAYQQHPQFQYAAYQQQQQQHHQSQQQPRGGSGGDDVKTLWVGDLLHWMDETYLHTCFSHTNEVSSVKVIRNKQTCQSEGYGFVEFLSRSAAEEALQSFSGVTMPNAEQPFRLNWASFSTGEKRASENGPDLSIFVGDLAPDVSDAVLLETFAGRYPSVKGAKVVIDSNTGRSKGYGFVRFGDENERSRAMTEMNGAFCSSRQMRVGIATPKRAAAYGQQNGSQALTLAGGHGGNGSMSDGESNNSTIFVGGLDADVTEEDLMQPFSDFGEVVSVKIPVGKGCGFVQFANRQSAEEAIGNLNGTVIGKNTVRLSWGRSPNKQWRSDSGNQWNGGYSRGQGYNNGYANQDSNMYATAAAAVPGAS
B5: RBP47b, GAL4 activation domain fusion (protein, UniProt Q0WW84 1-435)
chain: MQTTNGSDSTLATSGATPPNQQTPPPPQQWQQQQQQQQQWMAAMQYPPAAAMMMMQQQQMLMYPHQYVPYNQGPYQQHHPQLHQYGSYQQHQHQQHKAIDRGSGDDVKTLWVGDLLHWMDETYLHSCFSHTGEVSSVKVIRNKLTSQSEGYGFVEFLSRAAAEEVLQNYSGSVMPNSDQPFRINWASFSTGEKRAVENGPDLSVFVGDLSPDVTDVLLHETFSDRYPSVKSAKVVIDSNTGRSKGYGFVRFGDENERSRALTEMNGAYCSNRQMRVGIATPKRAIANQQQHSSQAVILAGGHGSNGSMGYGSQSDGESTNATIFVGGIDPDVIDEDLRQPFSQFGEVVSVKIPVGKGCGFVQFADRKSAEDAIESLNGTVIGKNTVRLSWGRSPNKQWRGDSGQQWNGGYSRGHGYNNGGGYANHHDSNNYHGEN
B6: RBP47c, GAL4 activation domain fusion (protein, UniProt Q9SX79 1-432)
chain: MADVKIQSESESSDSHPVVDNQPPPPPPPPQQPAKEEENQPKTSPTPPPHWMRYPPTVIIPHQMMYAPPPFPPYHQYPNHHHLHHQSRGNKHQNAFNGENKTIWVGDLHHWMDEAYLNSSFASGDEREIVSVKVIRNKNNGLSEGYGFVEFESHDVADKVLREFNGTTMPNTDQPFRLNWASFSTGEKRLENNGPDLSIFVGDLSPDVSDNLLHETFSEKYPSVKAAKVVLDANTGRSKGYGFVRFGDENERTKAMTEMNGVKCSSRAMRIGPATPRKTNGYQQQGGYMPNGTLTRPEGDIMNTTIFVGGLDSSVTDEDLKQPFNEFGEIVSVKIPVGKGCGFVQFVNRPNAEEALEKLNGTVIGKQTVRLSWGRNPANKQPRDKYGNQWVDPYYGGQFYNGYGYMVPQPDPRMYPAAPYYPMYGGHQQQVS
B7: RBP47c’, GAL4 activation domain fusion (protein, UniProt Q9SX80 1-434)
chain: MADVKVQSESESSDSHPLVDYQSLPPYPPPHPPVEVEENQPKTSPTPPPPHWMRYPPVLMPQMMYAPPPPMPFSPYHQYPNHHHFHHQSRGNKHQNAFNGENKTIWVGDLQNWMDEAYLNSAFTSAEEREIVSLKVIRNKHNGSSEGYGFVEFESHDVADKVLQEFNGAPMPNTDQPFRLNWASFSTGEKRLENNGPDLSIFVGDLAPDVSDALLHETFSEKYPSVKAAKVVLDANTGRSKGYGFVRFGDENERTKAMTEMNGVKCSSRAMRIGPATPRKTNGYQQQGGYMPSGAFTRSEGDTINTTIFVGGLDSSVTDEDLKQPFSEFGEIVSVKIPVGKGCGFVQFVNRPNAEEALEKLNGTVIGKQTVRLSWGRNPANKQPRDKYGNQWVDPYYGGQFYNGYGYMVPQPDPRMYPAAPYYPMYGGHQQQVS

Molecular target: T1, pre-mRNA-processing factor 39a (PRP39a), GAL4 DNA binding domain fusion (Arabidopsis thaliana)
Assay: two-hybrid

binding, no binding:
B1
B2
B3
B4
B5
B6
B7

Source: article doi:10.1101/2021.06.14.448173
